Structures are written as SMILES.

Sequences of proteins named here, by UniProt entry; tags and fusion partners are left off. A change or cut given only in a name is not applied to a line headed by its entry.
UniProt Q22993: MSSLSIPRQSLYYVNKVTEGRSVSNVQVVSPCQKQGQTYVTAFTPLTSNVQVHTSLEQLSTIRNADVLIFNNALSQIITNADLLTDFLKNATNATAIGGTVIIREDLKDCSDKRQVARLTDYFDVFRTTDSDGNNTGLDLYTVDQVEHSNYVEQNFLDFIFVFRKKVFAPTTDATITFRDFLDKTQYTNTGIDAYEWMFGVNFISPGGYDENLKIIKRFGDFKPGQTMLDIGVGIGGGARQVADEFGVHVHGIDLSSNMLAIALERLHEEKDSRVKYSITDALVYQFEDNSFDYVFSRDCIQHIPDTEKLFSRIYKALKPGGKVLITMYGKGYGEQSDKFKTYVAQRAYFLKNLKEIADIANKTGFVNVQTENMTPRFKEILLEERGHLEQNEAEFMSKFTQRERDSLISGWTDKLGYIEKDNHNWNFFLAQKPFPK

We go through one molecule from BindingDB's records for doi:10.1074/jbc.M111.290619 (Washington University, 2011).

The assay deals with Phosphoethanolamine N-methyltransferase 2 (Caenorhabditis elegans, UniProt Q22993). Description: Radiochemical Assay. To be noted: pH 8; 25 °C. The text has this:
A radiochemical assay was used to measure enzymatic activity.

`CN(C)CCOC(c1ccccc1)c1ccccc1` [Hydramine]: half-maximal inhibition (IC50) required 13 mM.
